Source: paper PMC10256737
These are yes or no findings as the source states them, for the method shown. In cells and extracts the contact can be indirect. A yes stands for co-enrichment or nearness to the bait. Other partners may have been found.

Biological target: T1, Capping actin protein, gelsolin-like (CAPG) (human (endogenous in THP-1)) (UniProt P40121)
T1 sequence: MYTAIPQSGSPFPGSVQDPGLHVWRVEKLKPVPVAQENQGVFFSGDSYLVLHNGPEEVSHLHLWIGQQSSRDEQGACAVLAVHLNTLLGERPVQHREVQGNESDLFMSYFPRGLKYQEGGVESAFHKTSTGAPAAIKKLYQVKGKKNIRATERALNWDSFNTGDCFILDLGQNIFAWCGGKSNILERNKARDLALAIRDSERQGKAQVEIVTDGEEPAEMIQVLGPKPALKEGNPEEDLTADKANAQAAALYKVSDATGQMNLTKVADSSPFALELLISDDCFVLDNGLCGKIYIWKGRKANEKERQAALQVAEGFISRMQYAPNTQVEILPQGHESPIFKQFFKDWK
Assay: affinity purification with mass spectrometry; endogenous CAPG precipitated from pre-cleared THP-1 nuclear extracts with CAPG antibody (ab181092) on Protein G agarose, IgG control; IP DNP buffer (20 mM HEPES pH 7.9, 100 mM KCl, 0.02% NP-40), 5 h at 4 °C; whole lane LC-MS/MS; hits FC > 2 over IgG

- binding: binds
B1: ZFP91 (protein, UniProt Q96JP5 1-570)
chain: MPGETEEPRPPEQQDQEGGEAAKAAPEEPQQRPPEAVAAAPAGTTSSRVLRGGRDRGRAAAAAAAAAVSRRRKAEYPRRRRSSPSARPPDVPGQQPQAAKSPSPVQGKKSPRLLCIEKVTTDKDPKEEKEEEDDSALPQEVSIAASRPSRGWRSSRTSVSRHRDTENTRSSRSKTGSLQLICKSEPNTDQLDYDVGEEHQSPGGISSEEEEEEEEEMLISEEEIPFKDDPRDETYKPHLERETPKPRRKSGKVKEEKEKKEIKVEVEVEVKEEENEIREDEEPPRKRGRRRKDDKSPRLPKRRKKPPIQYVRCEMEGCGTVLAHPRYLQHHIKYQHLLKKKYVCPHPSCGRLFRLQKQLLRHAKHHTDQRDYICEYCARAFKSSHNLAVHRMIHTGEKPLQCEICGFTCRQKASLNWHMKKHDADSFYQFSCNICGKKFEKKDSVVAHKAKSHPEVLIAEALAANAGALITSTDILGTNPESLTQPSDGQGLPLLPEPLGNSTSGECLLLEAEGMSKSYCSGTERVSLMADGKIFVGSGSSGGTEGLVMNSDILGATTEVLIEDSDSAGP
